Assay: general procedure: Fmoc solid-phase peptide synthesis; 2-CTC resin; DIC/HOBt
Conditions: whole synthesis

## H-His-Ala-Glu-Gly-Thr-Phe-Thr-Ser-Asp-Val-Ser-Ser-Tyr-Leu-Glu-Gly-Gln-Ala-Ala-Lys (γ-Glu-palmitoyl)-Glu-Phe-Ile-Ala-Trp-Leu-Val-Arg-Gly-Arg-Gly-OH (SEQ ID NO: 1)
HPLC / UPLC
  final HPLC purity: not less than 99.0%
Isolated yield
  isolated yield: 9-12%
